According to paper PMC6546395:
These are yes or no findings as the source states them, for the method shown. Some results given as binding are weak or reduced against the parent protein; the word gives no strength.

Protein sequences, listed by entry. Tags and fused reporters are not part of them. Lines headed by an entry give the natural chain unless they say otherwise; changes in a name come on top.
UniProt Q02732: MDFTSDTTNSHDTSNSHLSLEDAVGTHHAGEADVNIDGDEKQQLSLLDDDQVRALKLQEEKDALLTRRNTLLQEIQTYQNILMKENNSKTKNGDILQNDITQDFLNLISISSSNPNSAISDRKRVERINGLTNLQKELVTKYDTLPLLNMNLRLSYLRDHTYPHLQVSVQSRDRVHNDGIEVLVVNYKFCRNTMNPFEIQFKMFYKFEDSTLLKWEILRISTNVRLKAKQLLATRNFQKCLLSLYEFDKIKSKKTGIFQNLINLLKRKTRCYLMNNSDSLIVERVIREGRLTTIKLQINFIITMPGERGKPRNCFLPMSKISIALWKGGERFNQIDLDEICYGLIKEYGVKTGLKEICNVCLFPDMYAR

Tests used:
[1] = molecular target: Mhf2 (S. cerevisiae) (UniProt Q3E829); assay: co-purification of co-expressed subunits; subunits expressed together in E. coli (pETDuet-1 in BL21 (DE3); Ame1-6xHis/Okp1 as in Hornung et al., 2014); purified by the tag of one subunit (Ni-NTA or Strep-Tactin); Coomassie gel
[2] = molecular target: T1, Sli15/Ipl1 core chromosomal passenger complex (S. cerevisiae) (UniProt P38283+P38991); assay: pull-down; Sli15-2xStrep-HA-6xHis/Ipl1 immobilised on Strep-Tactin Superflow agarose, 2-fold molar excess of the partners; 50 mM NaH2PO4 pH 8, 120 mM NaCl, 5% glycerol, 4°C, 1 hr; SDS-PAGE and Coomassie; both purified
T1 sequence 1: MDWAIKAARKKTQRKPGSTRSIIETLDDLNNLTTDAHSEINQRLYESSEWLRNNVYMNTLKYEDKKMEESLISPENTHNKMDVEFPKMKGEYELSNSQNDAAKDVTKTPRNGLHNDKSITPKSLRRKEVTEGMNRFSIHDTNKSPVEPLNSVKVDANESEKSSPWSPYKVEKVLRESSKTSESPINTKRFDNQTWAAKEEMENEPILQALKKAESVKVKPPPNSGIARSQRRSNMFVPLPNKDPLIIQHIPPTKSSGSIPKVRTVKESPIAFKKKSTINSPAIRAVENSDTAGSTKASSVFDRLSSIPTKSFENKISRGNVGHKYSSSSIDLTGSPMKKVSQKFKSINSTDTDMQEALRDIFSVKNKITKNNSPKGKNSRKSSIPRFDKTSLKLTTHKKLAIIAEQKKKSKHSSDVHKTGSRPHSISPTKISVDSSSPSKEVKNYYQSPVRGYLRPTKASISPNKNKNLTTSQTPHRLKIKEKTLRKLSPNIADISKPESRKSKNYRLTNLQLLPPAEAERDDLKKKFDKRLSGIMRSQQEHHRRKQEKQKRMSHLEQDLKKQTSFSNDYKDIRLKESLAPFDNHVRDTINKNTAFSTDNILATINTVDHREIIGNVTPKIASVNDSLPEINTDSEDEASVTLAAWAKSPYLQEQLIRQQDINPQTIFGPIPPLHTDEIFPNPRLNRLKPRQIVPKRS
T1 sequence 2: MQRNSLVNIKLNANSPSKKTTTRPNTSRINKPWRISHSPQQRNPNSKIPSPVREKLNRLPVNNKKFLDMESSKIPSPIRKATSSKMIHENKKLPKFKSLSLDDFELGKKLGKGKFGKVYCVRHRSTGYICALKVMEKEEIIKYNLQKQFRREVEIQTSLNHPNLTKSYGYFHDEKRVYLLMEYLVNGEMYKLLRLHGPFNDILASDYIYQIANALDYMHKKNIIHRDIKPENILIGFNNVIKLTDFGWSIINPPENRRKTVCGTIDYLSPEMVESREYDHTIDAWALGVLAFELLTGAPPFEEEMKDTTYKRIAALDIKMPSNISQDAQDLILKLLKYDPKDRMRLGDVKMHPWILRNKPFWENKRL

Mhf1 (from UniProt Q3E835 1-90) was tested, and the binding [1] was “binds”.
For “Ctf19ΔC/Mcm21 (from UniProt Q02732 1-269; Q06675 1-368) (complex)”, the binding [2] was “no binding (tested: 2-fold molar excess)”.
